Assay results reported in publication PMC8546149, “Antibiotic-chemoattractants enhance neutrophil clearance of Staphylococcus aureus” (Nature Communications, 2021).
No constants are given. Whether binding was seen depends on the method and setting. Some results given as binding are weak or reduced against the parent protein; the word gives no strength.

Chains of the proteins cited; added tags and fusions are not shown.
UniProt P25090: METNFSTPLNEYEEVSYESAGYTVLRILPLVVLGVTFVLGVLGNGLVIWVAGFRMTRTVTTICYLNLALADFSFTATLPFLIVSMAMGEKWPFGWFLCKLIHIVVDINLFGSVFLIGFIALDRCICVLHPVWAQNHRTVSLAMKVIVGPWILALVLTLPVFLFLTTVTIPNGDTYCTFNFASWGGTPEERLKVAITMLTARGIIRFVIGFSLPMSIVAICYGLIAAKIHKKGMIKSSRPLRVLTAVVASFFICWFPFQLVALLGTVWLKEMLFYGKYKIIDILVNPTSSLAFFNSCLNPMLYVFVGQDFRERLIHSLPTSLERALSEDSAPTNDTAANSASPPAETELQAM

Biological target: formyl peptide receptor 2 (FPR2) (human (endogenous in neutrophils)) (UniProt P25090)
Test: competition binding of a fluorescent ligand on cells (plate reader); RhB-PB10 (15 uM) preincubated with human neutrophils (5 x 10^6/mL) in Bis-Tris buffer pH 6 for 1 h, washed twice, then 5 min with 8 uM test peptide, washed; Rhodamine B fluorescence left on the cells read at ex 550 nm, em 585 nm; only the binder purified

Binder: MIVIL (N-formyl on the N-terminal methionine) [fMIVIL]
- binding: binds
